According to article PMC8625570:
No constants are given. Whether binding was seen depends on the method and setting. For part of these data: In cells and extracts the contact can be indirect. Some results given as binding are weak or reduced against the parent protein; the word gives no strength.

Protein sequences, listed by entry. Tags and fused reporters are not part of them. Lines headed by an entry give the natural chain unless they say otherwise; changes in a name come on top. Residues count along the entry.
UniProt P62745, residues 1-181: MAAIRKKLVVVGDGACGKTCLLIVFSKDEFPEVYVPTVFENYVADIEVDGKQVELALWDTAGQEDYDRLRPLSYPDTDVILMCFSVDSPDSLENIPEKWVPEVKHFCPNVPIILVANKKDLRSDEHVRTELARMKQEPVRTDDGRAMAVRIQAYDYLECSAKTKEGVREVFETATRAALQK
UniProt P17081, residues 2-193: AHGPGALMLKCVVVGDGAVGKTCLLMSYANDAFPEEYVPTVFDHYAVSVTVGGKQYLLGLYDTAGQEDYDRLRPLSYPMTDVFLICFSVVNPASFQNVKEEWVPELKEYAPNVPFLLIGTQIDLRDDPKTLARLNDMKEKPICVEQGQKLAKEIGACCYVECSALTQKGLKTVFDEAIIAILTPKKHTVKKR
UniProt P08134, residues 1-181: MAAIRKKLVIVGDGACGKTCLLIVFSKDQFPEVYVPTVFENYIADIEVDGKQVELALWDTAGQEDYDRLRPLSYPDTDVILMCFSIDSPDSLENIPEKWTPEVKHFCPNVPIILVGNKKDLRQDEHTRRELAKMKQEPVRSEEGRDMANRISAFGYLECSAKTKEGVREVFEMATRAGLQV
UniProt P61586, residues 1-181: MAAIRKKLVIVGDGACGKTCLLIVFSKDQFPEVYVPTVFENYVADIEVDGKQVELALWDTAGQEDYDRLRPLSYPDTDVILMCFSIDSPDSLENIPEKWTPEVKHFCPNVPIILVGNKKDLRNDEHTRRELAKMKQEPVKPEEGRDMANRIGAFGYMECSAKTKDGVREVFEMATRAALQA
UniProt P84095, residues 1-178: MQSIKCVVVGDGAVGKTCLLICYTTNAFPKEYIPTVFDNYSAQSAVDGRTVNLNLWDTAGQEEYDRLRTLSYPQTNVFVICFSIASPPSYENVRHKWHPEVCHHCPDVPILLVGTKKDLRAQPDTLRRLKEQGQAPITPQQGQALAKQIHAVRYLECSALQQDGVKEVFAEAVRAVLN
UniProt P60953, residues 1-178: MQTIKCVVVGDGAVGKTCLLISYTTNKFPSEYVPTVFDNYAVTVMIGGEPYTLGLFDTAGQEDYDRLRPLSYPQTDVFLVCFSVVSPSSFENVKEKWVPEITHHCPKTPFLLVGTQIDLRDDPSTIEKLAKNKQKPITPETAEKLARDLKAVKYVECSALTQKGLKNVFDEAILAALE
UniProt P46940: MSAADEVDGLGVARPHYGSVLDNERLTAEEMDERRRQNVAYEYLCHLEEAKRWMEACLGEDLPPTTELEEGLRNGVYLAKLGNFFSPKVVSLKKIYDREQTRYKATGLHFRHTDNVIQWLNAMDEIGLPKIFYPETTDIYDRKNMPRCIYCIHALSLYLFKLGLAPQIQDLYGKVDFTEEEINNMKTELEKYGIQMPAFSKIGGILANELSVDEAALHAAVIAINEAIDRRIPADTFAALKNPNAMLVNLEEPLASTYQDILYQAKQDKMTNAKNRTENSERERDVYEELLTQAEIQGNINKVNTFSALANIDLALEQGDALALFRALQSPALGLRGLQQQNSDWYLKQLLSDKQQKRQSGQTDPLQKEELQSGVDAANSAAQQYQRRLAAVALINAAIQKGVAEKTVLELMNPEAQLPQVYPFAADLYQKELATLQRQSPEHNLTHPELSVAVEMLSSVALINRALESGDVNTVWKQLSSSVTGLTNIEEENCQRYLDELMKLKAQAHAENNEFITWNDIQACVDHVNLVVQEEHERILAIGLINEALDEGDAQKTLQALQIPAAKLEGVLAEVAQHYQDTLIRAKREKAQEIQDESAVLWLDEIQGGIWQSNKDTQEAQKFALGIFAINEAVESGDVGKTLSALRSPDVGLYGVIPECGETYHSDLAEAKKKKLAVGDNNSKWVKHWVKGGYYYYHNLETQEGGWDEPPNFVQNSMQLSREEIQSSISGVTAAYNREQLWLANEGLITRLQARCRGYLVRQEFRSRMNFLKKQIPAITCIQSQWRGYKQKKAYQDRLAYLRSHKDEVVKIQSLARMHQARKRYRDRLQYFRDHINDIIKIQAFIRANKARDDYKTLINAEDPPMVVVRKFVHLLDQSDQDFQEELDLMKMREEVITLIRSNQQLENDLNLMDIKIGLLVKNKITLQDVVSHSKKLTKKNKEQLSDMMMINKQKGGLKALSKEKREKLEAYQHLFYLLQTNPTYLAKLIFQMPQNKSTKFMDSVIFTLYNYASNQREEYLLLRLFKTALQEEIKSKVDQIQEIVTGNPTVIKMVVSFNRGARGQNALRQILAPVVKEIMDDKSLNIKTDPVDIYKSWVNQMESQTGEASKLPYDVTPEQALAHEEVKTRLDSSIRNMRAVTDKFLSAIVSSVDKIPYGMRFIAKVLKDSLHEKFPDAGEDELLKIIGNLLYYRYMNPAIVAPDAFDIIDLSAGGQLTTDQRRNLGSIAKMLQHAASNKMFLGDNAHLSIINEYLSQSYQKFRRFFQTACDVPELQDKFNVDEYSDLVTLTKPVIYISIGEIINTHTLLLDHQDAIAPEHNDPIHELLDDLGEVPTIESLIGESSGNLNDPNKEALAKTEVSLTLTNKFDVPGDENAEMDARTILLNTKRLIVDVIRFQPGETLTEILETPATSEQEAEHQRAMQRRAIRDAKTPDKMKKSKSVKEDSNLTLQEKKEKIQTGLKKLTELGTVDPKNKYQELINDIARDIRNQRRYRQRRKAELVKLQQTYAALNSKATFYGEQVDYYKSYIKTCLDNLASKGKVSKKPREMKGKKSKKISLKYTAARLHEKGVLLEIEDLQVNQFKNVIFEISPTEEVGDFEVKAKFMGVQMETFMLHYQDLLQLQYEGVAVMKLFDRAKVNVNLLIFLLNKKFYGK
UniProt Q13576, residues 780-1575: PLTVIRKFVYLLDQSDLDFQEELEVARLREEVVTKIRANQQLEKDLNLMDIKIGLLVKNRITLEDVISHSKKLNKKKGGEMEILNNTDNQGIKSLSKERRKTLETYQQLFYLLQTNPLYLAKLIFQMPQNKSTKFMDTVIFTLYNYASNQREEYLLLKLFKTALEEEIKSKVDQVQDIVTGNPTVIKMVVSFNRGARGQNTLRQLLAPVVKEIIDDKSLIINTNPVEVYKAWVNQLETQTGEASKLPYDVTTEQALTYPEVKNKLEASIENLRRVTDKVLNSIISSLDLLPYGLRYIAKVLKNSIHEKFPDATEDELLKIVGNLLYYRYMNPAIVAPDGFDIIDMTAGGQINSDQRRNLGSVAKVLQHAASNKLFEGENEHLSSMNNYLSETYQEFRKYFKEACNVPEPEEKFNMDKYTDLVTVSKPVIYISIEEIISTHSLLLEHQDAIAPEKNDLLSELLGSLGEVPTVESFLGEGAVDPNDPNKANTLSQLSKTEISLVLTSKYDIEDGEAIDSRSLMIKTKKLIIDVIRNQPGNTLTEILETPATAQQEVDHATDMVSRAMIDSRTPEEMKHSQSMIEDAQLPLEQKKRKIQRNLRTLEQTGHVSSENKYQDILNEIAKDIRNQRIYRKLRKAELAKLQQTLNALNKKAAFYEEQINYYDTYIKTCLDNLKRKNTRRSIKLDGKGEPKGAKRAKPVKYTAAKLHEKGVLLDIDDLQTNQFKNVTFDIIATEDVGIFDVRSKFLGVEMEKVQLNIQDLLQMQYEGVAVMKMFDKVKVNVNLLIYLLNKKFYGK

Legend:
[1] = target: RHOB (aa 1-181) (human) (UniProt P62745); assay: stopped-flow fluorescence spectrometry; association (kobs): 2 µM IQGAP1^C794 or IQGAP2^C795 mixed with 0.2 µM mGppNHp-bound RHO GTPase; 30 mM Tris-HCl pH 7.5, 10 mM K2HPO4/KH2PO4 pH 7.4, 2 mM MgCl2, 3 mM DTT, 25 °C; both purified
[2] = target: T1, RHOD, mouse (aa 2-193) (mouse) (UniProt P97348); assay: as above
T1 sequence: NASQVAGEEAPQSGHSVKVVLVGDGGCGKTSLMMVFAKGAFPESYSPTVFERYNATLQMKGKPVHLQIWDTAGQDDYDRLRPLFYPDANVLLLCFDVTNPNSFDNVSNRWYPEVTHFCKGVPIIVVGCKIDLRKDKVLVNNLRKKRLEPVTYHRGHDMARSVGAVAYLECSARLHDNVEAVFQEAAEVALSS

[3] = target: TC10 (aa 2-193) (human) (UniProt P17081); assay: as above
[4] = target: RHOC (aa 1-181) (human) (UniProt P08134); assay: as above
[5] = target: T2, RIF (aa 1-195) (human) (UniProt Q9HBH0); assay: as above
T2 sequence: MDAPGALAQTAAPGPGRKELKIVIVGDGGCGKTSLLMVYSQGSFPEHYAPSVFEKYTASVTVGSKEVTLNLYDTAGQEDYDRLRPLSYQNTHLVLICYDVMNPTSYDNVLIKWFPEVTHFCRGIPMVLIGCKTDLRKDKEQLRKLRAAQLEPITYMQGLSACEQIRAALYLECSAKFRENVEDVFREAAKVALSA

[6] = target: RHOA (aa 1-181) (human) (UniProt P61586); assay: as above
[7] = target: RHOA (aa 1-181) (human) (UniProt P61586); assay: stopped-flow fluorescence spectrometry; kon from 0.2 µM mGppNHp-bound RHO GTPase with 2-8 µM IQGAP1^C794; koff by displacing with 10 µM unlabeled RAC1-GppNHp from 2 µM IQGAP1^C794 with 0.2 µM GTPase; Kd calculated from the rate constants; 25 °C; both purified
[8] = target: T3, RND3 (aa 1-244) (human) (UniProt P61587); assay: stopped-flow fluorescence spectrometry; indirect competition: association of IQGAP1^C794 with RAC1 in the presence and absence of excess GTP-bound RND proteins; GppNHp-bound CDC42 as positive control; both purified
T3 sequence: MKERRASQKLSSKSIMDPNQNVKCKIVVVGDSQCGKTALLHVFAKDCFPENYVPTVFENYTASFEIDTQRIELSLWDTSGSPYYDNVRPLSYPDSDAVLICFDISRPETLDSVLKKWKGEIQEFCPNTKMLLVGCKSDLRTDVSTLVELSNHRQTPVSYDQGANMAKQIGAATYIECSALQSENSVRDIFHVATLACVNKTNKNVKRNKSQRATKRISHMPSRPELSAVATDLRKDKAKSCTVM

[9] = target: T4, RND2 (aa 26-184) (human) (UniProt P52198); assay: as above
T4 sequence: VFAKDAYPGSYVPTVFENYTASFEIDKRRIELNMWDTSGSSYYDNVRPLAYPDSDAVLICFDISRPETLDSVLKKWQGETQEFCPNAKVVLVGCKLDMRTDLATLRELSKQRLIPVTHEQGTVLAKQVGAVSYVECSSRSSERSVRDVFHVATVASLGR

[10] = target: T5, RND1 (aa 1-232) (human) (UniProt Q92730); assay: as above
T5 sequence: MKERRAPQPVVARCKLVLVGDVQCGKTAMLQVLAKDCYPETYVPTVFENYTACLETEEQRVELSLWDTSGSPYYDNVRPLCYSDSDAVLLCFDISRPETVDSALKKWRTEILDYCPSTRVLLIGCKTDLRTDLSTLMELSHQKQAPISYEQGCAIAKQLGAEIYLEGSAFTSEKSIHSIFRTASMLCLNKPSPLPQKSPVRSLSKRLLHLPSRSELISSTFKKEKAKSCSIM

[11] = target: GST-RHOG•GppNHp (human) (UniProt P84095); assay: pull-down; 10 µg GST-RHOG•GppNHp or GST-CDC42•GppNHp on glutathione agarose beads, HEK293 total cell lysate, 40 min at 4 °C; immunoblot with anti-IQGAP1 and anti-GST; only the target purified
[12] = target: GST-CDC42•GppNHp (human) (UniProt P60953); assay: as above

IQGAP1^C794 (C-terminal half of human IQGAP1 with the GRD, RGCT and CT domains) (from UniProt P46940 863-1657) (domain or fragment)
binding [1]: no binding (tested: 2 µM IQGAP, 0.2 µM GTPase) | binding [2]: no binding (tested: 2 µM IQGAP, 0.2 µM GTPase) | binding [3]: no binding (tested: 2 µM IQGAP, 0.2 µM GTPase) | binding [4]: no binding (tested: 2 µM IQGAP, 0.2 µM GTPase) | binding [5]: no binding (tested: 2 µM IQGAP, 0.2 µM GTPase) | binding [6]: no binding (tested: 2 µM IQGAP, 0.2 µM GTPase) | binding [7]: no binding | binding [8]: no binding | binding [9]: no binding | binding [10]: no binding

IQGAP2^C795 (C-terminal fragment of IQGAP2) (from UniProt Q13576 780-1575) (domain or fragment)
binding [1]: no binding (tested: 2 µM IQGAP, 0.2 µM GTPase) | binding [2]: no binding (tested: 2 µM IQGAP, 0.2 µM GTPase) | binding [3]: no binding (tested: 2 µM IQGAP, 0.2 µM GTPase) | binding [4]: no binding (tested: 2 µM IQGAP, 0.2 µM GTPase) | binding [5]: no binding (tested: 2 µM IQGAP, 0.2 µM GTPase) | binding [6]: no binding (tested: 2 µM IQGAP, 0.2 µM GTPase) | binding [8]: no binding | binding [9]: no binding | binding [10]: no binding

endogenous IQGAP1 (HEK-293 total cell lysate) (from UniProt P46940 1-1657)
binding [11]: binds | binding [12]: binds
